From PubChem BioAssay AID1487 (National Center for Advancing Translational Sciences (NCATS), 2009) come the findings set out here.

This assay in a line: qHTS Assay for Modulators of Lamin A Splicing. The following applies: HeLa LMNA splicing GFP/RFP minigene ratio, 48 h. In a few lines:
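S3 HeLa stable clones carrying a lamin A-EGFP splicing minigene plus DsRed2 were seeded at 600 cells/well in Opti-MEM with 2% FBS, pin-dosed and incubated 48 h at 37°C. Acumen cytometry (488 nm) gave the GFP/RFP total-intensity ratio.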

Where [1] appears, read: measured here: GFP splicing reporter channel.
Setting [2] is: measured here: RFP viability control channel.

The list shows a part of the results. Shown are side measurements of this screen, not its main read-out; they come without a call. Compounds called inactive in the main read-out are mostly missing here. The note in brackets gives the kind of curve behind each potency; many fits are weak.

Take `CC1(C)CC(=O)C(C=Nc2ccc(C(=O)c3ccccc3)cc2N=CC2=C(O)CC(C)(C)CC2=O)=C(O)C1`: the half-maximal activity concentration (AC50) was 39.8 µM [falling, partial curve, poor fit] under setting [1] and 1.78 µM [falling, partial curve, poor fit] under setting [2]. With `Cc1ccc(NC(=O)CSc2nc(NS(=O)(=O)c3ccc(C)cc3)cc(=O)[nH]2)cc1`, the AC50 under setting [2] is 17.8 µM [falling, single point].

As to `Clc1ccc(-c2noc(CSc3nnc(Cc4cccs4)n3-c3ccccc3)n2)cc1`, the AC50 under setting [2] was 35.5 µM [rising, single point]. `CCN(CC(=O)NCc1cccs1)c1nnnn1-c1ccccc1`: the half-maximal activity concentration (AC50) under setting [2] was 35.5 µM [rising, single point].

Regarding `CCCOc1ccc(C(CC(=O)O)NC(=O)c2sc3ccccc3c2Cl)cc1` (configuration not stated), the AC50 under setting [2] was 35.5 µM [falling, single point]. On to `CCCCn1cnc2cc(C)c(C)cc21`, for which the AC50 under setting [2] is 0.00355 µM [rising, full curve, poor fit].

For the compound `COc1cccc(C(=O)N2CCN(Cc3cc(Br)ccc3OC)CC2)c1`, the AC50 under setting [2] is 35.5 µM [rising, single point]. For the compound `CC1(C)CC(=O)C2=C(C1)Oc1nc3ccccc3cc1C2C(C#N)C#N` (configuration not stated), the AC50 under setting [1] was 15.8 µM [falling, single point] and the AC50 under setting [2] was 3.98 µM [falling, single point].

Consider `O=c1c(-c2ccc(F)cc2)nc2cncnc2n1Cc1ccccc1`, for which the half-maximal activity concentration (AC50) by setting is: under setting [1], 2.51 µM [falling, partial curve]; under setting [2], 35.5 µM [falling, single point].

For the compound `O=C(NCCC1=CCCCC1)C1CCCN(S(=O)(=O)c2ccccc2)C1` (configuration not stated), the half-maximal activity concentration (AC50) by setting is: under setting [1], 14.1 µM [rising, single point]; under setting [2], 14.1 µM [rising, partial curve]. With `O=C(OCC(=O)N1CCc2ccccc2C1)c1ccc(N2CCOCC2)c([N+](=O)[O-])c1`, the AC50 under setting [2] was 35.5 µM [rising, single point].

For the compound `O=[N+]([O-])c1ccc(C(=S)N2CCN(c3ccc(F)cc3)CC2)cc1`, the AC50 under setting [1] is 14.1 µM [falling, partial curve, poor fit] and the AC50 under setting [2] was 1.12 µM [falling, full curve, poor fit]. In the case of `O=C(Nc1cccc2ccccc12)OC1C=CS(=O)(=O)C1` (configuration not stated), the AC50 under setting [2] was 11.2 µM [rising, partial curve].

For the compound `CC(C)(C)c1ccc(S(=O)(=O)N2CCSC2)cc1`, the concentration at half-maximal activity (AC50) is 22.4 µM [rising, single point] under setting [1] and 12.6 µM [rising, partial curve] under setting [2]. For the compound `Cc1nn(Cc2ccc(Cl)cc2Cl)c(C)c1NC(=O)NC12CC3CC(CC(C3)C1)C2`, the AC50 under setting [2] was 12.6 µM [rising, single point].

`Cc1ccc(OC(C)C(=O)N/N=C/c2ccccn2)cc1` (configuration not stated): the AC50 under setting [1] is 7.94 µM [falling, partial curve, poor fit]. On to `CCC(C)NC(=O)CSc1nc2cc3c(cc2c(=O)n1Cc1ccc(C(=O)NCCc2ccc(OC)c(OC)c2)cc1)OCO3` (configuration not stated), for which the AC50 is 2.51 µM [falling, full curve, poor fit] under setting [1] and 3.16 µM [falling, partial curve, poor fit] under setting [2]. For `O=C(OCC#CCSc1nnc(-c2ccc(Br)cc2)o1)c1ccco1`, the AC50 reads like this: under setting [1], 35.5 µM [rising, single point]; under setting [2], 25.1 µM [rising, single point].

Consider `CCN1C(=O)CC(N2CCN(c3ccc(C(=O)c4ccccc4)cc3)CC2)C1=O` (configuration not stated), for which, under setting [1], the AC50 was 20 µM [rising, partial curve, poor fit]. With `CC(=O)c1cc(-c2ccccc2)n(CC(=O)NCc2cccs2)c1C`, under setting [2], the AC50 is 11.2 µM [rising, single point]. Consider `Cc1cccc(N2CCN(C(=O)C3CCN(c4ncnc5c4nc4n5CCCCC4)CC3)CC2)c1C`, for which the AC50 reads like this: under setting [1], 11.2 µM [falling, partial curve]; under setting [2], 10 µM [falling, partial curve].

In the case of `CCN(CC)c1ccc(-n2cc3c(=O)n(C)c(=O)n(C)c3c2)cc1`, the AC50 under setting [1] is 35.5 µM [rising, single point] and the AC50 under setting [2] was 35.5 µM [rising, single point]. In the case of `O=C1C(Cl)=C(NCC2CCCO2)C(=O)N1CCc1ccccc1` (configuration not stated), under setting [2], the concentration at half-maximal activity (AC50) is 15.8 µM [rising, partial curve, poor fit]. In the case of `COC(=O)c1[nH]c2ccc(F)cc2c1NS(=O)(=O)c1ccc(OC)cc1`, the AC50 reads like this: under setting [1], 10 µM [rising, partial curve]; under setting [2], 7.94 µM [rising, partial curve]. For the compound `COC(=O)c1cc(S(=O)(=O)N2CCOCC2)ccc1Sc1ccccc1N`, under setting [2], the AC50 is 35.5 µM [rising, single point].

Regarding `Cc1ccc(S(=O)(=O)Nc2ccc(Oc3cccnc3)nc2)cc1`, the AC50 under setting [2] is 0.158 µM [falling, full curve, poor fit]. Turning to `Cc1ccc(N(C)C(=O)CCS(=O)(=O)c2cc3c(cc2Cl)NC(=O)CO3)cc1`, the AC50 reads like this: under setting [1], 5.01 µM [falling, partial curve]; under setting [2], 6.31 µM [falling, full curve, poor fit]. With `O=C(Nc1cccc(Cl)c1)Nc1ccc2c(c1)OCO2`, under setting [2], the AC50 is 15.8 µM [rising, single point]. `C#CCOc1ccc(/C=C2\SC(=S)N(Cc3cccnc3)C2=O)cc1`: the AC50 under setting [1] is 35.5 µM [rising, single point]. For the compound `FC(F)Oc1ccc(NC(=S)NCc2cccnc2)cc1`, the AC50 under setting [2] is 1.41 µM [falling, partial curve, poor fit]. As for `COc1ccccc1NC(=O)/C(=C/c1cccc([N+](=O)[O-])c1)c1ccccc1`, the AC50 under setting [2] is 35.5 µM [rising, single point]. Consider `Cc1cccc(C(=O)Nc2ccc(S(=O)(=O)N(Cc3ccccc3)c3ccccc3)cc2)c1`, for which the AC50 under setting [2] is 0.0355 µM [falling, full curve, poor fit]. Same read-out and setting: for `CCn1c(SCC(=O)c2ccc(O)c(O)c2)nnc1-c1ccccc1OC` the value was 25.1 µM [rising, single point]. Take `OCCCNC(=S)Nc1ccc2nccnc2c1`: the AC50 under setting [1] was 0.0112 µM [rising, full curve, poor fit].

`CCOc1ccccc1NC(=O)c1cccc(S(=O)(=O)N(Cc2ccccc2)c2ccccc2OC)c1`: the AC50 under setting [2] was 10 µM [rising, partial curve].

One may read the AC50 as the midpoint of the concentration-response curve, whichever way the signal moves.
